Assay results taken from patent US8476197B2, “Aminopropenoates as fungicides” (priority 2009, dated 2013).
Some results were stated once for a whole list of compounds, not compound by compound.

Legend:
[1] = tested on: Sphaerotheca fuliginea; test: In vivo test on Sphaerotheca fuliginea (cucurbits powdery mildew), gherkin plants; conditions: dose of 500 ppm, grading 12 days after contamination
[2] = tested on: Peronospora parasitica; test: In vivo test on Peronospora parasitica (crucifer downy mildew), cabbage plants; conditions: dose of 500 ppm, grading 5 days after contamination
[3] = tested on: Puccinia recondita; test: Puccinia test (wheat)/preventive; assay type: in vivo; conditions: preventive, 500 ppm of active ingredient, evaluated 7-9 days after inoculation
[4] = tested on: Plasmopara viticola; test: Plasmopara test (grapevines)/preventive; assay type: in vivo; conditions: preventive, dose of 100 ppm, evaluated 6 days after inoculation
[5] = tested on: Pyrenophora teres; test: In vivo test on Pyrenophora teres (barley net blotch); conditions: barley plants, dose of 500 ppm, grading 12 days after contamination
[6] = tested on: Leptosphaeria nodorum; test: Leptosphaeria test (wheat)/preventive; assay type: in vivo; conditions: preventive, 500 ppm of active ingredient, evaluated 7-9 days after inoculation
[7] = tested on: Alternaria solani; test: Alternaria test (tomato)/preventive; assay type: in vivo; conditions: preventive, 500 ppm of active ingredient, evaluated 7 days after inoculation
[8] = tested on: Mycosphaerella graminicola; test: In vivo test on Mycosphaerella graminicola (wheat leaf spot); conditions: wheat plants, dose of 500 ppm, grading 21 to 28 days after contamination
[9] = tested on: Alternaria brassicae; test: In vivo test on Alternaria brassicae (leaf spot of crucifers), radish plants; conditions: dose of 500 ppm, grading 6 to 7 days after contamination

## CCOC(=O)C(C#N)=C(NC(C)c1nccs1)c1ccsc1Br (centres unmarked) [Compound 105]
[1]
  protection (% of efficacy): at least 70%
[2]
  protection: at least 70%

## CCOC(=O)C(C#N)=C(NC(C)CC)c1sc(C)nc1C(F)(F)F (centres unmarked) [Compound 835]
[1]
  protection (% of efficacy): at least 70%
[2]
  protection: at least 70%

## CCOC(=O)C(C#N)=C(NCc1ccccn1)c1nsc(Cl)c1Cl [Compound 70]
[3]
  efficacy: ≥ 70%

## CCOC(=O)C(C#N)=C(NCc1ccccc1SC)c1cccnc1Cl [Compound 1171]
[4]
  protection (efficacy): at least 70%

## CCOC(=O)C(C#N)=C(NC(C)CC)c1cccnc1Cl (racemic) [Compound 824]
[5]
  protection: at least 70%
[2]
  protection: at least 70%

## CCCCCCC(C)NC(=C(C#N)C(=O)OCC)c1cn(C)nc1C(F)F (racemic) [Compound 817]
[1]
  protection (% of efficacy): at least 70%
[2]
  protection: at least 70%

## CCOC(=O)C(C#N)=C(NC(C)Cc1nccs1)c1ccncc1F (mixture of isomers) [Compound 302]
[3]
  efficacy: ≥ 70%

## CCOC(=O)C(C#N)=C(NC(C)Cc1cccnc1)c1cccnc1Cl (mixture of isomers) [Compound 296]
[6]
  efficacy: ≥ 70%
[7]
  efficacy: ≥ 70%
[3]
  efficacy: ≥ 70%

## CCOC(=O)C(C#N)=C(Nc1cccnc1O)c1cccnc1Cl [Compound 286]
[6]
  efficacy: ≥ 70%

## COC(=O)C(C#N)=C(NC(C)CN)c1cn(C)nc1C(F)F (racemic) [Compound 591]
[3]
  efficacy: ≥ 70%

## CC(C)C(C)NC(=C(C#N)C(=O)NC1CC1F)c1cccnc1Cl (centres unmarked) [Compound 1456]
[4]
  protection (efficacy): at least 70%

## CCOC(=O)C(C#N)=C(NC(C)CC)c1cnccc1C(F)(F)F (racemic) [Compound 843]
[3]
  efficacy: ≥ 70%

## CCCCCCC(C)NC(=C(C#N)C(=O)OCC)c1sc(C)nc1C(F)(F)F (racemic) [Compound 818]
[1]
  protection (% of efficacy): at least 70%

## COC(=O)C(C#N)=C(NC(C)C(C)C)c1sc(C)nc1C(F)(F)F (centres unmarked) [Compound 948]
[5]
  protection: at least 70%

## CCOC(=O)C(C#N)=C(NC(C)CN(C)C)c1c(C)nn(C)c1Cl (centres unmarked) [Compound 605]
[5]
  protection: at least 70%

## CCOC(=O)C(C#N)=C(NC(C)c1ccccn1)c1c(C(F)F)nn(C)c1Cl (racemic) [Compound 156]
[8]
  protection (% of efficacy): at least 70%
[2]
  protection: at least 70%

## CCOC(=O)/C(C#N)=C(\NC(C)c1nccs1)c1sccc1Cl (centres unmarked) [Compound 149]
[1]
  protection (% of efficacy): at least 70%
[2]
  protection: at least 70%

## CCOC(=O)C(C#N)=C(NC(C)C(C)C)c1cccnc1Cl (centres unmarked) [Compound 984]
[4]
  protection (efficacy): at least 70%

## CC(C)C(C)NC(=C(C#N)C(N)=O)c1cccnc1Cl (centres unmarked) [Compound 993]
[3]
  efficacy: ≥ 70%

## CCOC(=O)C(C#N)=C(Nc1ccccc1SC)c1sccc1Cl [Compound 435]
[8]
  protection (% of efficacy): at least 70%

## CC(C)COC(=O)C(C#N)=C(NC(C)c1nccs1)c1cccnc1Cl (centres unmarked) [Compound 28]
[7]
  efficacy: ≥ 70%

## CCOC(=O)C(C#N)=C(NC(C)C(C)C)c1cccnc1Cl (centres unmarked) [Compound 952]
[2]
  protection: at least 70%
[4]
  protection (efficacy): at least 70%

## CCCC(C)NC(=C(C#N)C(=O)OCC)c1sc(C)nc1C(F)(F)F (centres unmarked) [Compound 868]
[1]
  protection (% of efficacy): at least 70%
[2]
  protection: at least 70%

## CC(C)C(C)NC(=C(C#N)C(=O)NC1CC1)c1cccnc1Cl (centres unmarked) [Compound 1451]
[4]
  protection (efficacy): at least 70%

## CCCCCC(C)NC(=C(C#N)C(=O)OCC)c1cn(C)nc1C(F)F (racemic) [Compound 855]
[1]
  protection (% of efficacy): at least 70%

## C#CC(C)(C)NC(=C(C#N)C(=O)OCC)c1sccc1Cl [Compound 1032]
[8]
  protection (% of efficacy): at least 70%

## CCOC(=O)C(C#N)=C(NC(c1cc2ccccc2s1)C(F)(F)F)c1nsc(Cl)c1Cl (centres unmarked) [Compound 69]
[3]
  efficacy: ≥ 70%

## CCOC(=O)C(C#N)=C(NC(c1cc2ccccc2s1)C(F)(F)F)c1ncc(C(F)(F)F)cc1Cl (centres unmarked) [Compound 73]
[3]
  efficacy: ≥ 70%

## CCOC(=O)C(C#N)=C(NCc1nccs1)c1cnccc1C(F)(F)F [Compound 272]
[3]
  efficacy: ≥ 70%

## C=CCCCC(C=C)NC(=C(C#N)C(=O)OCC)c1c(C)nn(C)c1Cl (racemic) [Compound 1013]
[1]
  protection (% of efficacy): at least 70%

## CCOC(=O)C(C#N)=C(NC(C)C(C)C)c1c(C(F)F)nn(C)c1Cl (centres unmarked) [Compound 954]
[1]
  protection (% of efficacy): at least 70%
[9]
  protection: at least 70%
[2]
  protection: at least 70%

## CCOC(=O)C(C#N)=C(NC(C)c1nc(C)c(C)s1)c1c(C)nn(C)c1Cl (centres unmarked) [Compound 94]
[1]
  protection (% of efficacy): at least 70%

## CCOC(=O)C(C#N)=C(NC(C)c1nccs1)c1cccnc1OCC (racemic) [Compound 148]
[1]
  protection (% of efficacy): at least 70%
[2]
  protection: at least 70%

## CCOC(=O)C(C#N)=C(NC(C)CC)c1cn(C)nc1C(F)F (centres unmarked) [Compound 833]
[1]
  protection (% of efficacy): at least 70%
[2]
  protection: at least 70%

## C=CCCCC(C=C)NC(=C(C#N)C(=O)OCC)c1ccsc1I (centres unmarked) [Compound 1024]
[9]
  protection: at least 70%
[2]
  protection: at least 70%

## CCOC(=O)C(C#N)=C(NC(C)C(=O)NC)c1c(C)nn(C)c1Cl (centres unmarked) [Compound 606]
[5]
  protection: at least 70%

## COC(=O)C(C#N)=C(NC(C)C(C)C)c1cccnc1Br (centres unmarked) [Compound 942]
[2]
  protection: at least 70%
[4]
  protection (efficacy): at least 70%

## CC(C)C(C)NC(=C(C#N)C(=O)NCC(F)(F)F)c1cccnc1Cl (centres unmarked) [Compound 992]
[7]
  efficacy: ≥ 70%
[3]
  efficacy: ≥ 70%

## CCOC(=O)C(C#N)=C(NCC(c1ccccc1)C(C)C)c1cccnc1Cl (racemic) [Compound 545]
[3]
  efficacy: ≥ 70%

## C=CCCCC(C=C)NC(=C(C#N)C(=O)OCC)c1cn(C)nc1C(F)F (racemic) [Compound 1016]
[1]
  protection (% of efficacy): at least 70%
[2]
  protection: at least 70%

## CCOC(=O)C(C#N)=C(NC(C)c1sc(C)nc1C)c1cn(C)nc1C(F)F (racemic) [Compound 187]
[1]
  protection (% of efficacy): at least 70%
[2]
  protection: at least 70%

## CCOC(=O)C(C#N)=C(NCc1ccccn1)c1c(C(F)F)nn(C)c1Cl [Compound 155]
[9]
  protection: at least 70%
[2]
  protection: at least 70%

## CCOC(=O)C(C#N)=C(NC(C)C(N)=O)c1sccc1Cl (centres unmarked) [Compound 644]
[8]
  protection (% of efficacy): at least 70%
[2]
  protection: at least 70%

## CCOC(=O)C(C#N)=C(NC(C)C(=O)NC)c1sccc1Cl (centres unmarked) [Compound 645]
[8]
  protection (% of efficacy): at least 70%
[2]
  protection: at least 70%

## CCOC(=O)C(C#N)=C(NCc1nc2ccccc2s1)c1sccc1Br [Compound 170]
[9]
  protection: at least 70%

## C=CCCCC(C=C)NC(=C(C#N)C(=O)OCC)c1sccc1Cl (centres unmarked) [Compound 1023]
[8]
  protection (% of efficacy): at least 70%

## CCOC(=O)C(C#N)=C(NC(C)C(C)C)c1sccc1Cl (centres unmarked) [Compound 951]
[8]
  protection (% of efficacy): at least 70%
[2]
  protection: at least 70%

## CCOC(=O)C(C#N)=C(NC(C)CN1CCCCC1)c1cccnc1Cl (racemic) [Compound 273]
[3]
  efficacy: ≥ 70%

## CCOC(=O)C(C#N)=C(NC(C)CN)c1ncc(C(F)(F)F)cc1Cl (racemic) [Compound 589]
[3]
  efficacy: ≥ 70%

## CCOC(=O)C(C#N)=C(NC(C)c1ccccn1)c1ccsc1Br (centres unmarked) [Compound 116]
[2]
  protection: at least 70%
[4]
  protection (efficacy): at least 70%

## COC(=O)C(C#N)=C(NC(C)(C)c1c(F)cccc1F)c1cccnc1Cl [Compound 385]
[7]
  efficacy: ≥ 70%

## CCCCCC(C)NC(=C(C#N)C(=O)OCC)c1sc(C)nc1C(F)(F)F (centres unmarked) [Compound 857]
[1]
  protection (% of efficacy): at least 70%

## CCOC(=O)C(C#N)=C(NC(C)c1nccs1)c1c(C)nn(C)c1Cl (centres unmarked) [Compound 98]
[1]
  protection (% of efficacy): at least 70%

## CCOC(=O)C(C#N)=C(NC[Si](C)(C)C)c1cccnc1Cl [Compound 1085]
[1]
  protection (% of efficacy): at least 70%

## CCOC(=O)C(C#N)=C(NC(C)c1nccs1)c1ccsc1I (racemic) [Compound 158]
[1]
  protection (% of efficacy): at least 70%
[8]
  protection (% of efficacy): at least 70%
[2]
  protection: at least 70%

## CCOC(=O)C(C#N)=C(NC(C)c1ccc(Cl)cc1)c1ccncc1F (racemic) [Compound 546]
[3]
  efficacy: ≥ 70%

## COC(=O)C(C#N)=C(NC(CN1CCOCC1)C1CC1)c1cccnc1Cl (centres unmarked) [Compound 121]
[7]
  efficacy: ≥ 70%
